In patent US20250084371A1, “CELL MONOLAYER BLOCKING AGENTS AND USES THEREOF” (LUMICKS CA HOLDING B.V., priority 2021, published 2025):

Tested on: Raji cells
Assay: Raji monolayer stability to repeated acoustic force ramps on PLL-coated chips
Format: cell-based

O=C(CCOCCOCCOCCOCCOCCOCCOCCOCCOCCC(=O)ON1C(=O)CCC1=O)ON1C(=O)CCC1=O [BS(PEG)9]
monolayer confluency after force application (Raji on PLL reacted with 10 mM crosslinker after seeding, 4 acoustic force ramps 1 to 1000 pN): not affected by the force

COCCOCCOCCOCCC(=O)ON1C(=O)CCC1=O [MS(PEG)4]
attachment of target cells / monolayer confluency after force application (PLL chip reacted with 5 mM reagent before seeding the Raji (negative control)): prevented the stable attachment of the target cells
